Protein sequences, listed by entry. Tags and fused reporters are not part of them. Lines headed by an entry give the natural chain unless they say otherwise; changes in a name come on top.
UniProt P0A850: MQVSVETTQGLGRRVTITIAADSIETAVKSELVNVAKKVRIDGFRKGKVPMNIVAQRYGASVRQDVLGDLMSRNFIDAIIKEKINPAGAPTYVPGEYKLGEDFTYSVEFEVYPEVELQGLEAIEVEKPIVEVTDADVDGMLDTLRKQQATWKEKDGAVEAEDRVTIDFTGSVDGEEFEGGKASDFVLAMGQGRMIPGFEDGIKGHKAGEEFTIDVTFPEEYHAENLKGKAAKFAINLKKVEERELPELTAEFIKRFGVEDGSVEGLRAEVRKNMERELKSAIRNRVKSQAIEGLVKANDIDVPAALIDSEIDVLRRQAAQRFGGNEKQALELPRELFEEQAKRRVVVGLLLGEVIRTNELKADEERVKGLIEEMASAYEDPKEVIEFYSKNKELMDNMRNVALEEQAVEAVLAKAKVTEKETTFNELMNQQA

According to article PMC8313134:

Biological target: His-TF (trigger factor tag control) (UniProt P0A850)
Test: EMSA
Details: tag-only control; not given; EMSA as described in Ma et al. 2018; cold competitor 10x, 20x, 40x; recombinant protein; protein details: His

Question: Does “GTCGCTAAACTTGCCACGGTCCCACTTTTTCAACTCTTATTA (double strand) [Dq probe (DBR2 promoter)]” bind?
Answer: no binding

The exact form of at least one protein or probe is not confirmed. No signal at the amounts used counts as a negative.
